From the supplement of paper PMC10849652 come the findings set out here.

The chains behind the UniProt entries cited, without tags or fusion partners. Where a name states a change or a piece, a line headed by the entry shows the natural chain unless it says otherwise.
UniProt Q9Y5P6: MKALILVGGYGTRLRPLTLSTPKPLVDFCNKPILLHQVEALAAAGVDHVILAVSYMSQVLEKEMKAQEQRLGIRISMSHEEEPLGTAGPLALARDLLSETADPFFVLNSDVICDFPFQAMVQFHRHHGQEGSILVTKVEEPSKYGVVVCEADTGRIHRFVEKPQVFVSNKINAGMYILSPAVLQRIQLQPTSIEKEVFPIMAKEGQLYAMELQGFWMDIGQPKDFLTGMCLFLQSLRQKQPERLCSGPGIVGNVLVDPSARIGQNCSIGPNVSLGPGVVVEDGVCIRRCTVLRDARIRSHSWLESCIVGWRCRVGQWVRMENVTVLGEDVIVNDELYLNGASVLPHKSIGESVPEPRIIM
UniProt O75791: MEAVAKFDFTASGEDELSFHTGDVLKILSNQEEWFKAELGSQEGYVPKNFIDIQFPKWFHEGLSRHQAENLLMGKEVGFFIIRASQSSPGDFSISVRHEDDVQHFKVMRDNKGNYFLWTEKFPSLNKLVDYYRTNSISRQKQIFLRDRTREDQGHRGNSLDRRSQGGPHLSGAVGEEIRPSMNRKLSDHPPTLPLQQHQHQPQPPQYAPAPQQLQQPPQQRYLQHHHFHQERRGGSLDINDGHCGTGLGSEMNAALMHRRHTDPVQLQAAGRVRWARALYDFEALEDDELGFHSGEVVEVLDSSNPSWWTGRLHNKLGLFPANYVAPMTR
UniProt Q8N335: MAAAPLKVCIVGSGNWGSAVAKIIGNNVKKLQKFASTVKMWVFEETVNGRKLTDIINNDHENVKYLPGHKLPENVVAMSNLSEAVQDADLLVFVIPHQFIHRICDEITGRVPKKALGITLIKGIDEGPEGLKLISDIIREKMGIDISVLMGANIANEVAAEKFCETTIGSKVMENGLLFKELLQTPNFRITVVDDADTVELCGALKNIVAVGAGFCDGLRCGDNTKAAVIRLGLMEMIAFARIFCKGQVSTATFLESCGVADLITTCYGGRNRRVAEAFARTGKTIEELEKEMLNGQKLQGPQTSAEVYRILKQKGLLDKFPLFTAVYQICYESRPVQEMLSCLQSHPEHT
UniProt Q14344, whole entry, looked up: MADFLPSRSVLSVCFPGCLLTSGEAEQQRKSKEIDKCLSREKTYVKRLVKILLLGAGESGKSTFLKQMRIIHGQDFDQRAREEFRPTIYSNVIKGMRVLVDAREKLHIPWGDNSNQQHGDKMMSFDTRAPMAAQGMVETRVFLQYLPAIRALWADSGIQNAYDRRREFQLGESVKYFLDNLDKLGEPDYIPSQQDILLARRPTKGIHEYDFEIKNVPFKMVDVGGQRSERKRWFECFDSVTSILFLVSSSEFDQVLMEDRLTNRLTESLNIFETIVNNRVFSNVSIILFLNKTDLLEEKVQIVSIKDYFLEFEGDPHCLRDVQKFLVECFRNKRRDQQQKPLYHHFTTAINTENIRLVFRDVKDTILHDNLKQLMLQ
UniProt Q9UHW5, whole entry, looked up: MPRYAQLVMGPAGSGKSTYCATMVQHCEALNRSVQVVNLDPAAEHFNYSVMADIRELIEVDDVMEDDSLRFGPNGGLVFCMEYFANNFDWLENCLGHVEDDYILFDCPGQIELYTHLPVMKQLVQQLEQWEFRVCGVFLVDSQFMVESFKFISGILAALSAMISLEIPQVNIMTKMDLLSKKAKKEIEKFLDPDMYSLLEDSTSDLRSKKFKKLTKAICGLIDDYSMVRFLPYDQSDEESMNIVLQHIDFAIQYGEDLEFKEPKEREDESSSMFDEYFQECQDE
UniProt Q8TDQ7: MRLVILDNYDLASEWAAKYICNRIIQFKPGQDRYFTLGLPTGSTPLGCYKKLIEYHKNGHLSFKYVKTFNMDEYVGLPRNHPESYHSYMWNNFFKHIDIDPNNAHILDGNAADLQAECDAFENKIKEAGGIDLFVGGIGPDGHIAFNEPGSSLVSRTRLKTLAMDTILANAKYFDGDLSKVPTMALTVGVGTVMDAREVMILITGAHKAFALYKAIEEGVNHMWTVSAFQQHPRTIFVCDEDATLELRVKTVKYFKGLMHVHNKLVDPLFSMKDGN
UniProt Q9Y3E0: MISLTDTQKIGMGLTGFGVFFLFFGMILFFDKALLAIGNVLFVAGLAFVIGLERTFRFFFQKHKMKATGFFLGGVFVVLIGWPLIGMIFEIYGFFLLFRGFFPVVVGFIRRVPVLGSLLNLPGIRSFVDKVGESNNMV
UniProt Q9NQX3: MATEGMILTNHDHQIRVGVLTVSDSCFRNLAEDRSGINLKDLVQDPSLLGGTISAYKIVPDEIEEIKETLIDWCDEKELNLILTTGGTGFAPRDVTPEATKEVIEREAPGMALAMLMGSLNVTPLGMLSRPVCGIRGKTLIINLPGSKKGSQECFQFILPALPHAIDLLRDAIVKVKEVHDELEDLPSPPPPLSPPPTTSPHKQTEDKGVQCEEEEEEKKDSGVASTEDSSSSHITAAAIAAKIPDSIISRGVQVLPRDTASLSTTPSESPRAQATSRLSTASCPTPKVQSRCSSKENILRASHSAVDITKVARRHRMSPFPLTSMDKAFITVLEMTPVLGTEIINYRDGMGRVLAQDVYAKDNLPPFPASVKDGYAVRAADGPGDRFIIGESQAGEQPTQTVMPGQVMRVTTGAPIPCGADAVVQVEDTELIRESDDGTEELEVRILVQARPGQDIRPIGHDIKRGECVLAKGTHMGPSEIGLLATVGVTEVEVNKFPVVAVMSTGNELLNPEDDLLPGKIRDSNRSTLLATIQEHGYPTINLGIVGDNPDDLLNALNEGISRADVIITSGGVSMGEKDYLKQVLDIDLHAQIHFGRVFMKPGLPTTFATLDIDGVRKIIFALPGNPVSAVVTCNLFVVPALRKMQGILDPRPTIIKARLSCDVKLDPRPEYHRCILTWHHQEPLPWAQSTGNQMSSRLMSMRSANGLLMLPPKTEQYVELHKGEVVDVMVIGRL
UniProt Q9HC38: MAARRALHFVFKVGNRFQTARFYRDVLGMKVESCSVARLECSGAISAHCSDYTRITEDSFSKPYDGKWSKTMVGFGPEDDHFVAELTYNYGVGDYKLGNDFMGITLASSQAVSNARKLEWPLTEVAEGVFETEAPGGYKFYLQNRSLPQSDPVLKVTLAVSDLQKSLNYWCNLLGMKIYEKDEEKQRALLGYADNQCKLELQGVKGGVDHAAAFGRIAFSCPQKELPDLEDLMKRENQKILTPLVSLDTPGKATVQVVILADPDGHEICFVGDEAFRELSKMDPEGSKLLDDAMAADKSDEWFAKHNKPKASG
UniProt Q8IW92: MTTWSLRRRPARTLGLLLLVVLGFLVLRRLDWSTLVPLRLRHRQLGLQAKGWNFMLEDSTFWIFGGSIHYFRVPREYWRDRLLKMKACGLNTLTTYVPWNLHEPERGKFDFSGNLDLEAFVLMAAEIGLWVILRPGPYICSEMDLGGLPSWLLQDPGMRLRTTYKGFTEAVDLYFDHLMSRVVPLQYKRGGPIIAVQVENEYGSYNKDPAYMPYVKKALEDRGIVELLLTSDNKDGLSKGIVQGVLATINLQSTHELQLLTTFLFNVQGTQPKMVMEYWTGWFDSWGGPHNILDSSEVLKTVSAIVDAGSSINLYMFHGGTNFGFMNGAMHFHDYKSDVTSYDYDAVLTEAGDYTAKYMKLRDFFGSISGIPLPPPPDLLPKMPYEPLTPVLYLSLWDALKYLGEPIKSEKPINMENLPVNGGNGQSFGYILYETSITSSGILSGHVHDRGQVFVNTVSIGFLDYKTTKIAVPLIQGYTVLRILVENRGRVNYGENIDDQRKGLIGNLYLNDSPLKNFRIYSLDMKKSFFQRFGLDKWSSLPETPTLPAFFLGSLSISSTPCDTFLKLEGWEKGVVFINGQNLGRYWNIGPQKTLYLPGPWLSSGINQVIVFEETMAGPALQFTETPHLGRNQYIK
UniProt Q08379: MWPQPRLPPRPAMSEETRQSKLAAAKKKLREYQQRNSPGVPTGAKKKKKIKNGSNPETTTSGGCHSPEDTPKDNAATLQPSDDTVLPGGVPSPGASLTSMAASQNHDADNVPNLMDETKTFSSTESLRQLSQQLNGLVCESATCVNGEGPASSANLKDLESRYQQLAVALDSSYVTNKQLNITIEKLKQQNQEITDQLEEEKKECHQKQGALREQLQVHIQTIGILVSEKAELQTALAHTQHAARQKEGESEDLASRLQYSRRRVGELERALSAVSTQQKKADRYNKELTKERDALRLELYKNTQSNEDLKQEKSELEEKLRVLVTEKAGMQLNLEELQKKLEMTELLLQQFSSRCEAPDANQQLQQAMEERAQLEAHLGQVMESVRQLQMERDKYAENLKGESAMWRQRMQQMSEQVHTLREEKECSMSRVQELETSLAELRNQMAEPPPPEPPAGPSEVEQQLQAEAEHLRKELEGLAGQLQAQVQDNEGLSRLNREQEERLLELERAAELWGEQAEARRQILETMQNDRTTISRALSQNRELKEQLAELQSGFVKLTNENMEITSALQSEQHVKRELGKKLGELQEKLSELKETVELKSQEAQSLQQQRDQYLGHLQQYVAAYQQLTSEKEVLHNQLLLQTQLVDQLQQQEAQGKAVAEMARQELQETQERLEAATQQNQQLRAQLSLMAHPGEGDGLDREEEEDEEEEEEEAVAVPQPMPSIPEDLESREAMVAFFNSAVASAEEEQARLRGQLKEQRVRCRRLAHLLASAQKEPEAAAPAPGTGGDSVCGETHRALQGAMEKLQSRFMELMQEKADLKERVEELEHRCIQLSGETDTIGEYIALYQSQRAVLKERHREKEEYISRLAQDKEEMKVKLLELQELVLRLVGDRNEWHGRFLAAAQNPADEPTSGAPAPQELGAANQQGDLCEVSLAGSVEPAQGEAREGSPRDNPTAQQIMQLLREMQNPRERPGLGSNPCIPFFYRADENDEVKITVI
UniProt Q8TBA6: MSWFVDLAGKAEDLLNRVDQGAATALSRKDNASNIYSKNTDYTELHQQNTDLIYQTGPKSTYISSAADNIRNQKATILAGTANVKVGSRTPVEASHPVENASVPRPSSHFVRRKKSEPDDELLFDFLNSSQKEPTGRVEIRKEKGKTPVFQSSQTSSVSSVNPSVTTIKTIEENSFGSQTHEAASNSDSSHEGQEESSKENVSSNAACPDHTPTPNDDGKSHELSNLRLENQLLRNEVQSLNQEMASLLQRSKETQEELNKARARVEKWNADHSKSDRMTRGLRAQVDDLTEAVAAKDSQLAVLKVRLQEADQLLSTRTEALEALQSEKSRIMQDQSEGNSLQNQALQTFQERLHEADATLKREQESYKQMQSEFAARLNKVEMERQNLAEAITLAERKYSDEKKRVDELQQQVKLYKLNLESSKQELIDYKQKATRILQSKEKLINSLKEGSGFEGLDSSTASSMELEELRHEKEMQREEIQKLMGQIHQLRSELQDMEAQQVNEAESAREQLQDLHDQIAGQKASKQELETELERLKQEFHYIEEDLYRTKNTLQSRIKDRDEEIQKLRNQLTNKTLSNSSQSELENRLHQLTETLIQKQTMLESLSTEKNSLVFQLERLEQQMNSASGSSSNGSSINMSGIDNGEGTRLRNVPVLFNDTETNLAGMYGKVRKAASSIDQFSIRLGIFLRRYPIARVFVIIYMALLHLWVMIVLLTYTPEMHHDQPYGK
UniProt P17174: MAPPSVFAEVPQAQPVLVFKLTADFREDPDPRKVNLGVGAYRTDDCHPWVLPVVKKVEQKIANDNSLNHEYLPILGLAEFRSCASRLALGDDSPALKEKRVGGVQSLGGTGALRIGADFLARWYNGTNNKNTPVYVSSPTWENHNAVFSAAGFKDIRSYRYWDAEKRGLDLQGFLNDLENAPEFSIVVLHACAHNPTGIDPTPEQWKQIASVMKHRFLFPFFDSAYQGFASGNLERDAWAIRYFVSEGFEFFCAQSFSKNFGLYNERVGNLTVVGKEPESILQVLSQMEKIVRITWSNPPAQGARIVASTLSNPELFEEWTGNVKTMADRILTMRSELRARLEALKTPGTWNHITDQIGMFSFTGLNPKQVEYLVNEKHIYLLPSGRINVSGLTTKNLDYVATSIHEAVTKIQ
UniProt P17900: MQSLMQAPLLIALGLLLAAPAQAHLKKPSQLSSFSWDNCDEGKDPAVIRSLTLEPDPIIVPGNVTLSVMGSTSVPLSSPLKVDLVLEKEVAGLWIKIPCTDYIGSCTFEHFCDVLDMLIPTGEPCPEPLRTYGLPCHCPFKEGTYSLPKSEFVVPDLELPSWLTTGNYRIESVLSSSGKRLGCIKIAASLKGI
UniProt O60234, whole entry, looked up: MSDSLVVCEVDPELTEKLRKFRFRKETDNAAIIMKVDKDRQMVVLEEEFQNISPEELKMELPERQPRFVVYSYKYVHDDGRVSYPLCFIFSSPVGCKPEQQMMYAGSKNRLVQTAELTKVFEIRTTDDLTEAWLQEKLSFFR
UniProt Q8N954: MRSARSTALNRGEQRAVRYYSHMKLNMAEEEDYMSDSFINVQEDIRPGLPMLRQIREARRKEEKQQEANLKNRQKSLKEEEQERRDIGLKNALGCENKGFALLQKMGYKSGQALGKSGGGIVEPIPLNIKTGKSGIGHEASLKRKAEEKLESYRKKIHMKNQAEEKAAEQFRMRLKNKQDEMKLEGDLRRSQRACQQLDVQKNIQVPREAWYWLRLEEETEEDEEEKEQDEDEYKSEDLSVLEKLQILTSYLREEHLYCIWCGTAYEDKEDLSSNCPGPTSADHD

This is one part of the list.

Compound in one assay: Cn1cncc1[C@@](N)(c1ccc(Cl)cc1)c1ccc2c(c1)c(-c1cccc(Cl)c1)cc(=O)n2C [tipifarnib]
Briefly: log2 fold change, soluble protein after heating vs DMSO (PISA); higher = thermal stabilisation; K562 cells, 10 uM, 30 min; active = over 0.2 and 3.5 SD of the protein, either way, in both replicates (recomputed). In a few lines:
(§1)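 K562 cells (2×10^6 cells/mL) were treated with 10 μM compound for 30 min, and aliquots were heated for 3 min over 48°C-58°C. Pooled aliquots were extracted in PBS with 0.5% NP-40 at 4°C, and the supernatant after 21,000xg for 90 min was measured by TMTpro 16plex LC-MS/MS with channel sums equalised. Reported thermal stability, relative to control samples and from duplicates, is a log2 fold change.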
On to GMPPB isoform 2 (UniProt Q9Y5P6), for which the log2 fold change was inactive: -0.008.
Turning to GK (UniProt P32189), the log2 fold change is inactive: 0.083.
Same read-out and setting: in the case of GRN (UniProt P28799) it was inactive: 0.02; in that of GRB2 (UniProt P62993), inactive: 0.035; in that of GINS4 (UniProt Q9BRT9), inactive: 0.019.
With GRAP2 (UniProt O75791), the log2 fold change is inactive: -0.043.
Same read-out and setting: in the case of GPD1L (UniProt Q8N335) it was inactive: 0.04.
Regarding GNA13 (UniProt Q14344), the log2 fold change was inactive: -0.003.
For the target GOSR1 (UniProt O95249), the log2 fold change was inactive: 0.006.
Take GPATCH8 (UniProt Q9UKJ3): the log2 fold change is inactive: 0.087.
On the same count and under the same terms, in the case of GPALPP1 (UniProt Q8IXQ4) it was inactive: 0.007.
For the target GPD2 (UniProt P43304), the log2 fold change was inactive: 0.039.
For GPRIN1 (UniProt Q7Z2K8), the log2 fold change is inactive: 0.033.
As to GPN3 isoform 2 (UniProt Q9UHW5), the log2 fold change was inactive: 0.
Regarding GNPDA2 (UniProt Q8TDQ7), the log2 fold change is inactive: -0.022.
The same measure, in the same setting: in the case of GMPR2 isoform 2 (UniProt Q9P2T1) it was inactive: -0.039; in that of GNE isoform 2 (UniProt Q9Y223), inactive: -0.115; in that of GPAA1 (UniProt O43292), inactive: -0.039.
For GPR107 (UniProt Q5VW38), the log2 fold change was inactive: 0.029.
As to GORASP2 isoform 3 (UniProt Q9H8Y8), the log2 fold change is inactive: -0.053.
The same measure, in the same setting: in the case of GOLIM4 (UniProt O00461) it was inactive: 0.018; in that of GPN1 isoform 5 (UniProt Q9HCN4), inactive: -0.032.
Consider GOLT1B (UniProt Q9Y3E0), for which the log2 fold change was inactive: -0.061.
Still for that read-out and setting: the value for GRWD1 (UniProt Q9BQ67) was inactive: 0.147; that for GRHPR (UniProt Q9UBQ7) was inactive: -0.01.
Take GLG1 isoform 2 (UniProt Q92896): the log2 fold change was inactive: 0.01.
For the target GRSF1 (UniProt Q12849), the log2 fold change was inactive: -0.039.
The same measure, in the same setting: in the case of GPHN isoform 2 (UniProt Q9NQX3) it was inactive: 0.01.
Regarding GLOD4 isoform 2 (UniProt Q9HC38), the log2 fold change is inactive: -0.083.
GLB1L2 (UniProt Q8IW92): the log2 fold change was inactive: 0.047.
Regarding GIPC1 (UniProt O14908), the log2 fold change is inactive: -0.045.
For GOLGA2 (UniProt Q08379), the log2 fold change is inactive: 0.043.
On the same count and under the same terms, in the case of GINS3 (UniProt Q9BRX5) it was inactive: -0.036.
Take GOLGA5 (UniProt Q8TBA6): the log2 fold change is inactive: 0.006.
Turning to GOT1 (UniProt P17174), the log2 fold change was inactive: -0.021.
As for GM2A (UniProt P17900), the log2 fold change is inactive: 0.012.
On to GMFG (UniProt O60234), for which the log2 fold change is inactive: -0.041.
Still for that read-out and setting: the value for GNAQ (UniProt P50148) was inactive: 0.065; that for GPATCH11 (UniProt Q8N954) was inactive: 0.022.

Compound in a further assay: FC(F)(F)c1ccc(/C=C/c2nc(COc3ccc(CCCCn4ccnn4)cc3)co2)cc1 [mubritinib]
The assay is described as above. In a few lines:
as §1
Consider GMPPB isoform 2 (UniProt Q9Y5P6), for which the log2 fold change is inactive: -0.004.
For the target GK (UniProt P32189), the log2 fold change is inactive: 0.048.
In the case of GRN (UniProt P28799), the log2 fold change is inactive: 0.056.
Turning to GRB2 (UniProt P62993), the log2 fold change is inactive: 0.077.
For GINS4 (UniProt Q9BRT9), the log2 fold change was inactive: 0.098.
GRAP2 (UniProt O75791): the log2 fold change was inactive: 0.054.
Regarding GPD1L (UniProt Q8N335), the log2 fold change was inactive: 0.112.
As to GNA13 (UniProt Q14344), the log2 fold change was inactive: 0.007.
Consider GOSR1 (UniProt O95249), for which the log2 fold change was inactive: 0.022.
Still for that read-out and setting: in the case of GPATCH8 (UniProt Q9UKJ3) it was inactive: 0.044.
For GPALPP1 (UniProt Q8IXQ4), the log2 fold change is inactive: 0.003.
Take GPD2 (UniProt P43304): the log2 fold change is inactive: 0.028.
Regarding GPRIN1 (UniProt Q7Z2K8), the log2 fold change is inactive: -0.002.
Take GPN3 isoform 2 (UniProt Q9UHW5): the log2 fold change was inactive: 0.088.
Same read-out and setting: the value for GNPDA2 (UniProt Q8TDQ7) was inactive: 0.026; that for GMPR2 isoform 2 (UniProt Q9P2T1) was inactive: 0.029; that for GNE isoform 2 (UniProt Q9Y223) was inactive: 0.031.
For the target GPAA1 (UniProt O43292), the log2 fold change was inactive: -0.001.
Turning to GPR107 (UniProt Q5VW38), the log2 fold change is inactive: -0.054.
For GORASP2 isoform 3 (UniProt Q9H8Y8), the log2 fold change is inactive: -0.002.
With GOLIM4 (UniProt O00461), the log2 fold change is inactive: 0.024.
GPN1 isoform 5 (UniProt Q9HCN4): the log2 fold change was inactive: 0.056.
On the same count and under the same terms, in the case of GOLT1B (UniProt Q9Y3E0) it was inactive: 0.032; in that of GRWD1 (UniProt Q9BQ67), inactive: -0.068.
Take GRHPR (UniProt Q9UBQ7): the log2 fold change is inactive: -0.025.
Take GLG1 isoform 2 (UniProt Q92896): the log2 fold change was inactive: 0.002.
The same measure, in the same setting: in the case of GRSF1 (UniProt Q12849) it was inactive: -0.258; in that of GPHN isoform 2 (UniProt Q9NQX3), inactive: 0.038.
As to GLOD4 isoform 2 (UniProt Q9HC38), the log2 fold change is inactive: 0.065.
Still for that read-out and setting: the value for GLB1L2 (UniProt Q8IW92) was inactive: -0.005; that for GIPC1 (UniProt O14908) was inactive: 0.045.
Take GOLGA2 (UniProt Q08379): the log2 fold change was inactive: -0.085.
Take GINS3 (UniProt Q9BRX5): the log2 fold change is inactive: 0.084.
The same measure, in the same setting: in the case of GOLGA5 (UniProt Q8TBA6) it was inactive: 0.015; in that of GOT1 (UniProt P17174), inactive: 0.028; in that of GM2A (UniProt P17900), inactive: -0.025.
GMFG (UniProt O60234): the log2 fold change is inactive: 0.057.
Turning to GNAQ (UniProt P50148), the log2 fold change was inactive: -0.006.
The same measure, in the same setting: the value for GPATCH11 (UniProt Q8N954) was inactive: 0.
